Where two headings read alike, the source gives them in different places.
Key:
AT4 receptor [1] = type: binding, cow; conditions: adrenal medulla
AT4 receptor [2] = type: binding, cat; conditions: whole adrenal

For `CC[C@H](C)[C@H](NC(=O)[C@H](Cc1ccc(O)cc1)NC(=O)[C@@H](N)C(C)C)C(=O)N[C@@H](Cc1cnc[nH]1)C(=O)N1CCC[C@H]1C(=O)N[C@@H](Cc1ccccc1)C(=O)O` [AIV, Val1 Tyr2 Ile3 His4 Pro5 Phe6], the “125I-AIV binding (Bmax in Table 1)” value (AT4 receptor [1]) was 397.3 fmol/mg/prot, the “125I-AIV binding (Bmax in Table 1)” value (AT4 receptor [1]; listed as 125I-AIV) was 397.3 ± 53.6 fmol/mg/prot and the “125I-AIV binding (Bmax in Table 1)” value (AT4 receptor [2]) was 199.6 fmol/mg/prot. For the same compound, the “125I-AIV binding (Bmax in Table 1)” value (AT4 receptor [2]; listed as 125I-AIV) was 199.6 ± 19.7 fmol/mg/prot.

— US5854388A, “Angiotensin IV peptides and receptor” (Washington State University Research Foundation, priority 1994, dated 1998)
